# At least one compound was matched to its structure with a doubt left.
# The chains behind the UniProt entries cited, without tags or fusion partners. Residues count along the entry.
# UniProt P05067, 672-711 limits assumed: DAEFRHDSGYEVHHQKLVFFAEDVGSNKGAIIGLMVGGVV
# How the values were obtained:
# [1] = target: T1, IAPP (Homo sapiens, UniProt P10997); experiment: MS binding assay for IAPP; conditions: 200 μM test compound, 20 μM solubilized IAPP, pH 7.4
# T1 construct: which is a 37 amino acid peptide, derived from a larger precursor peptide, called pro-IAPP
# T1 sequence (P10997 34-70 limits assumed): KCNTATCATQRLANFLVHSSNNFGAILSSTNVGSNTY
# [2] = target: T2, Aβ1-40 (Homo sapiens, UniProt P05067); experiment: MS binding assay for Aβ40; conditions: 200 μM test compound/20 μM Aβ40 or 400 μM/40 μM, pH 7.4
# T2 construct: 200 μM of a test compound and 20 μM of solubilized Aβ40
smiles,measurement,setting,value
"CCCCCCCCCCCC[N+](C)(C)CCCS(=O)(=O)[O-] [DF, CH3(CH2)11N^+(CH3)2(CH2)3SO3^−]",MS binding IAPP,[1],+++ (Strong Binding >75%)
same,MS binding Aβ1-40,[2],− (Little/no detectable binding 20-39%)
"CCCCCCCC[N+](C)(C)CCCS(=O)(=O)[O-] [FD, CH3(CH2)7N^+(CH3)2(CH2)3SO^3−]",MS binding IAPP,[1],++ (Moderate Binding 40-75%)
same,MS binding Aβ1-40,[2],++ (Moderate Binding 70-89%)

# Source: patent publication US7598269B2, “Methods and compositions for treating amyloid-related diseases” (Bellus Health (International) Limited, priority 2003, dated 2009)
